According to article PMC11677128:
Results are given in words; binding and its absence hold for the method and conditions named. A result given as binding can be weak or reduced; the word gives no strength. For some assays here: In cells and extracts the contact can be indirect. For some assays here: Tags and fused reporters may be left off the sequences shown.

Legend:
[1] = target: T1, SlDELLA (pGBKT7-SlDELLA) (tomato (Solanum lycopersicum)) (UniProt Q7Y1B6); assay: two-hybrid; Clontech Matchmaker GAL4 system III, Y2H Gold yeast; SlUPA-like in pGADT7, the others in pGBKT7; growth on SD/-Ade/-His/-Leu/-Trp with X-alpha-Gal, 30 °C, 3 days
T1 sequence: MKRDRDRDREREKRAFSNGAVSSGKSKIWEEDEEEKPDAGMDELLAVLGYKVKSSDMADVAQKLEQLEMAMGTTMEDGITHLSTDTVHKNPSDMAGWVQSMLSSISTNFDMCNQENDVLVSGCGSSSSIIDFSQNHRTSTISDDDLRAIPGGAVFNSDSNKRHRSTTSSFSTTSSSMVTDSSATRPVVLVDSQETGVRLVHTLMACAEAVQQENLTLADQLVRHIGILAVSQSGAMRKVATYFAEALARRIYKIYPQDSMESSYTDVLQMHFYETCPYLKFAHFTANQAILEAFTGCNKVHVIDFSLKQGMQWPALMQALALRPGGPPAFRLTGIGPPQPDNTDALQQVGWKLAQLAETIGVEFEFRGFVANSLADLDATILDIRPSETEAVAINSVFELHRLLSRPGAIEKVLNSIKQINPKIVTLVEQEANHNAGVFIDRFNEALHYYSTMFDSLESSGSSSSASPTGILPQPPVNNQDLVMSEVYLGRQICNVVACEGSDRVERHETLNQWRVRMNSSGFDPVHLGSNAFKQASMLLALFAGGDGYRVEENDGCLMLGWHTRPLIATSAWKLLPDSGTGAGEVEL

[2] = target: T2, SlDELLA fused with C-GFP (pFGC-cGFP) (tomato (Solanum lycopersicum)) (UniProt Q7Y1B6); assay: split reporter; BiFC with split GFP (pFGC-nGFP and pFGC-cGFP), transient expression in Nicotiana benthamiana epidermal cells, confocal microscopy; HY5-RFP as nuclear marker
T2 sequence: T1 sequence

| binding [1] | binding [2] | Substance |
| --- | --- | --- |
| binds | – | SlUPA-like (pGADT7-SlUPA-like) (tomato (Solanum lycopersicum)) |
| – | binds | SlUPA-like-N (SlUPA-like fused with N-GFP, pFGC-nGFP) (tomato (Solanum lycopersicum)) |
